Results: patent publication US20100304462

Tests used:
Assay in all cases: enzyme reaction in vitro
GauT27I(0G) R790D/E802R = tested on: T1, GauT27I(0G) R790D/E802R; conditions: cuts 19/17; protein in a lysate after overexpression; variant of GauT27I site
T1 sequence (limits assumed): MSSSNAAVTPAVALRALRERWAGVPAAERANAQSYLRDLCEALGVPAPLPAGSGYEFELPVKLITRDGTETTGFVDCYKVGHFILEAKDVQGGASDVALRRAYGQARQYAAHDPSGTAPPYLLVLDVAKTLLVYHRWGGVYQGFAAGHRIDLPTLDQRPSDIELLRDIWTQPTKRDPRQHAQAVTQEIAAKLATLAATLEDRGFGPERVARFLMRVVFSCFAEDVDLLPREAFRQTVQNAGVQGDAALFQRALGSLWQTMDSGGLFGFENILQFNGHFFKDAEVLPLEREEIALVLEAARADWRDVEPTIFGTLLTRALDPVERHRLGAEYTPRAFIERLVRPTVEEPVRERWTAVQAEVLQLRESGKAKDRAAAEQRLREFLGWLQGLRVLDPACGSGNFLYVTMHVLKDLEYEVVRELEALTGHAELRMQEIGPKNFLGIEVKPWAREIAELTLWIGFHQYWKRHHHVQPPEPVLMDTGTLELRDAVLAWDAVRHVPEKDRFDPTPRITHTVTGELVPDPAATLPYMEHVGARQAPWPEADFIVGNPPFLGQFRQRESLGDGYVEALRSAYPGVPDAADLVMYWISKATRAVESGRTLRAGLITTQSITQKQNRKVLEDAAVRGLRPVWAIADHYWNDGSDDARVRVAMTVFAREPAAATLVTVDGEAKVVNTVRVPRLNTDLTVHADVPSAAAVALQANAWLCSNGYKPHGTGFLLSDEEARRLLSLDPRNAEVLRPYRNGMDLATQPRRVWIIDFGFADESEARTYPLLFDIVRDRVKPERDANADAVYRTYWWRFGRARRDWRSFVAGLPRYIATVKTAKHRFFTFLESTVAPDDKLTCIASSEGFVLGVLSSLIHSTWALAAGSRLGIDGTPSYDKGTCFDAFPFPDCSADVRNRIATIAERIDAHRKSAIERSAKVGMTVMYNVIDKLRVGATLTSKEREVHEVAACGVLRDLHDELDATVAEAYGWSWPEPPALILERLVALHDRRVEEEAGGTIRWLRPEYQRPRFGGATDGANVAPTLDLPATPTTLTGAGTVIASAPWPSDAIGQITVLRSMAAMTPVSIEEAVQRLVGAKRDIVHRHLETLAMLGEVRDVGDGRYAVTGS

[1] = tested on: T2, ApyPI (Arcanobacterium pyogenes); conditions: cuts N20/N18; frameshift corrected; protein in a lysate after overexpression
T2 sequence (limits assumed): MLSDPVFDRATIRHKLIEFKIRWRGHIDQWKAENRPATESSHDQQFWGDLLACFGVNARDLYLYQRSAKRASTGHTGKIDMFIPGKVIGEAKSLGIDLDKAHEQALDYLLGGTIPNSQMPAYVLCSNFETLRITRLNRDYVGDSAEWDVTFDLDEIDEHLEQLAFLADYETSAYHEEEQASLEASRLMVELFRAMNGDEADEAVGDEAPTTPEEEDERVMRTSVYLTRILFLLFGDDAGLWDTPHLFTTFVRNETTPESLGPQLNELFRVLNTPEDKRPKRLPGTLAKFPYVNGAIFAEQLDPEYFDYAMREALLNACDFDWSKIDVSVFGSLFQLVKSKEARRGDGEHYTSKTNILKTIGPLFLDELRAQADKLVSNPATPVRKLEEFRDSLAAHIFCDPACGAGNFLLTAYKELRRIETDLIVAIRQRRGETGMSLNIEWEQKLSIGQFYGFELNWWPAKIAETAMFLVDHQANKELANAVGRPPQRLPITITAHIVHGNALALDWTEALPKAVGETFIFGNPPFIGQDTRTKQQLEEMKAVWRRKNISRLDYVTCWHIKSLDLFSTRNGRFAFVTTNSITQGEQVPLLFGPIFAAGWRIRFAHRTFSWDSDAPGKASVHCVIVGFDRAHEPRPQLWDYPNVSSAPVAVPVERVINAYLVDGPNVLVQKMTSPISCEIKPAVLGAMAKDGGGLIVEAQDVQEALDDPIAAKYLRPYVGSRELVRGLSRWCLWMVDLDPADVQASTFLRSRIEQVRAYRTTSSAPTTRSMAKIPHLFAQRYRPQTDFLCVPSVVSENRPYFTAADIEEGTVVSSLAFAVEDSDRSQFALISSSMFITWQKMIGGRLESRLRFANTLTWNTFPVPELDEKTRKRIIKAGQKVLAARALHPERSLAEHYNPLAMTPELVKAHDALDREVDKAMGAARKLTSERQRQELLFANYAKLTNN

[2] = tested on: T3, SpoDI (Silicibacter pomeroyi); conditions: cuts N20/N18; protein in a lysate after overexpression
T3 sequence (limits assumed): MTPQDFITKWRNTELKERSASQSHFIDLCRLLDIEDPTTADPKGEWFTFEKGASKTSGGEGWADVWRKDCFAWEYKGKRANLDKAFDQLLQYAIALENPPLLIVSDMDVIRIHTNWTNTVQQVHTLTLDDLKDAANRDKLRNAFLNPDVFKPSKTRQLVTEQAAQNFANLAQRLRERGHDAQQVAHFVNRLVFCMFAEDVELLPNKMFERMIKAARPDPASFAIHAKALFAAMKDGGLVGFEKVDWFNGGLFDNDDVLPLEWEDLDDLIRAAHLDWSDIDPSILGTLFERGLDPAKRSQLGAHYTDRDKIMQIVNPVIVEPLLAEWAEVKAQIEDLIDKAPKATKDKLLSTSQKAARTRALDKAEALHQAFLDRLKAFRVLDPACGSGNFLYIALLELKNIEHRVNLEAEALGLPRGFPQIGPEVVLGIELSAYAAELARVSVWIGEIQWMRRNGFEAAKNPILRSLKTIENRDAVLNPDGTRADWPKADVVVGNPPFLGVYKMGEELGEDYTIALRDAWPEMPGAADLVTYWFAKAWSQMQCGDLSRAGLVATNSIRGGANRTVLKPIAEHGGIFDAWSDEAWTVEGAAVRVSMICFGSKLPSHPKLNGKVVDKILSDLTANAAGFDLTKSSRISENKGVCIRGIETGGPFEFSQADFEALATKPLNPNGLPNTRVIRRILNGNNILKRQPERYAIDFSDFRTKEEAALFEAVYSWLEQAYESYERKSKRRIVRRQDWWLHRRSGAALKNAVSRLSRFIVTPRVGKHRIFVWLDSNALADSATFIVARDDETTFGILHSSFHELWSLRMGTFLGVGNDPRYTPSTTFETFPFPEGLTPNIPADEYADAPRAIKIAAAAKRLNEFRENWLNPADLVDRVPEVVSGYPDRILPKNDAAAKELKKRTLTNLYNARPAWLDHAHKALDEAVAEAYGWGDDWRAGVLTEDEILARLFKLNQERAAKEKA

Question: How did the “activity on this sequence” value (GauT27I(0G) R790D/E802R) turn out when “GGCGCAGG (double strand) [GauT27I(0G) site]” was run?
Answer: The value was “active”.

Question: Which “activity on this sequence” value [1] does the source give for ATCGAC (double strand) [ApyPI site] here?
Answer: Its value is “active”.

Question: For GCGGAAG (double strand) [SpoDI site], which “activity on this sequence” value [2] is on record?
Answer: The value was “active”.

Tags and fusion partners may be left off the protein sequences shown.
